Laboratory results from the supplement of paper PMC12889115.
This is one part of the list. These are raw signals, not scaled to a control.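 First-pass screen: polymyxin B was added at a level that permeabilizes the Salmonella outer membrane while sparing the inner membrane. DMSO wells, with and without polymyxin B, defined maximum growth. Because plates differed from one another, each plate's data were ranked separately and the compounds with the lowest OD600 were carried forward as hits.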

Test system: Salmonella enterica serovar Typhimurium SL1344
Assay: bacterial growth OD600 after 18 h with compound and polymyxin B; higher = more bacterial growth (less inhibition)
Details: 50 µM, Mueller-Hinton broth

Row | SMILES | bacterial growth OD600 (polymyxin B 0.75 µg/mL) | bacterial growth OD600 (polymyxin B 1 µg/mL)
1 | CCn1cc(C(=O)N2CCCC(CCc3ccccc3F)C2)cn1 (stereo not drawn) | 0.447 | –
2 | C=CCCC(=O)NC(C)c1cnc(N(C)C2CCCCC2)nc1C (stereo not drawn) | 0.553 | –
3 | COC(=O)[C@@H](NC(=O)CC1(c2ccc(OC)cc2)CC(=O)N(C2CCCC2)C1=O)c1ccccc1 (stereo partly drawn) | 0.852 | –
4 | O=C(NC1CCCC1)c1ccc(OC2CCN(C3CCC3)CC2)c(Cl)c1 | – | 1.08
5 | COCCn1cc(C(=O)NC2CCCCCCC2)c(=O)c(C(=O)N2C[C@@H](C)O[C@@H](C)C2)c1 | 0.809 | –
6 | CN(CC1CCCN(CCc2ccc(Cl)cc2)C1)C(=O)c1ccsc1 (stereo not drawn) | – | 0.863
7 | Cc1nc2ccccc2n1Cc1cc(C(=O)N2CCCCCC2)n[nH]1 | – | 0.863
8 | Cc1nc(N2CCC(C(=O)N3CCC(O)(c4cccnc4)CC3)CC2)nc2ccc(C(C)C)cc12 | 0.782 | –

Whole records, quoted from the list:
COCCn1cc(C(=O)NC2CCCCCCC2)c(=O)c(C(=O)N2C[C@@H](C)O[C@@H](C)C2)c1 reads bacterial growth OD600 (polymyxin B 0.75 µg/mL): 0.809
CN(CC1CCCN(CCc2ccc(Cl)cc2)C1)C(=O)c1ccsc1 (stereo not drawn) reads bacterial growth OD600 (polymyxin B 1 µg/mL): 0.863
